# Laboratory results published in the supplement of paper PMC8728848.
# Some of the results follow.
# B1: OS9 (Arabidopsis thaliana) (protein)
# chain: MRGSHHHHHHGMASMTGGQQMGRDLYDDDDKSRLQIFPAHLVGTFSRNNREPKYKIEFLPEDSPFHPGDNLESMVMLDKHGNRFLCYLPKEEKATSGWTSSQQNISTVMMETQQLVKLKTPDELLQPLSEKCLFRQEGWWSYEFCHQKYVRQLHVEDENKIVQEFFLGTFDPEATAAFNQTVSDASTDASQRYHSHVYTNGTTCDLTGSPAEVEVRFVCAETRAMVTSITELSTCKYALTVQCPTLCKHPLFQLEKPVSHTIHCNAIPVEEDATRNKEEQAVDESPKMIADS
# Experiments:
# Experiment in all cases: glycan array binding signal (z-score within array); higher = stronger binding
# Conditions in all cases: glycan notation: IUPAC condensed, linker removed; mutation: R201A
# [1] = target: Gal(a1-3)Gal(b1-4)GlcNAc
# In short: (§1)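 Glycan array data came from 3228 arrays in the Consortium for Functional Glycomics database, and only arrays with an available protein sequence were kept. Glycan names were put into IUPAC-condensed notation, and columns mapping to the same glycan were averaged. The binding signal is a within-array Z-score, averaged across arrays of one protein sequence run at different concentrations or buffers and across linkers. A negative Z-score can be read as non-binding.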
# [2] = target: Gal(a1-3)Gal(b1-4)GlcNAc(b1-2)Man
# In short: as §1
# [3] = target: Gal(a1-3)Gal(b1-4)GlcNAc(b1-2)Man(a1-3)[Gal(a1-3)Gal(b1-4)GlcNAc(b1-2)Man(a1-6)]Man(b1-4)GlcNAc(b1-4)GlcNAc
# In short: as §1
# [4] = target: Gal(a1-3)Gal(b1-4)GlcNAc(b1-3)GalNAc
# In short: as §1
# [5] = target: Gal(a1-3)Gal(b1-4)GlcNAc(b1-6)GalNAc
# In short: as §1
# [6] = target: Gal(a1-3)Gal(b1-4)[Fuc(a1-3)]GlcNAc
# In short: as §1
# [7] = target: Gal(a1-3)Gal(b1-4)[Fuc(a1-3)]GlcNAc(b1-2)Man(a1-3)[Gal(a1-3)Gal(b1-4)[Fuc(a1-3)]GlcNAc(b1-2)Man(a1-6)]Man(b1-4)GlcNAc(b1-4)GlcNAc
# In short: as §1
# [8] = target: Gal(a1-3)GalNAc
# In short: as §1
# [9] = target: Gal(a1-3)[Gal(a1-4)]Gal(b1-4)GlcNAc
# In short: as §1
# [10] = target: Gal(a1-4)Gal(b1-3)GlcNAc(b1-2)Man(a1-3)[Gal(a1-4)Gal(b1-3)GlcNAc(b1-2)Man(a1-6)]Man(b1-4)GlcNAc(b1-4)GlcNAc
# In short: as §1
# [11] = target: Gal(a1-4)Gal(b1-4)Glc
# In short: as §1
# [12] = target: Gal(a1-4)Gal(b1-4)GlcNAc
# In short: as §1
# [13] = target: Gal(a1-4)Gal(b1-4)GlcNAc(b1-2)Man(a1-3)[Gal(a1-4)Gal(b1-4)GlcNAc(b1-2)Man(a1-6)]Man(b1-4)GlcNAc(b1-4)GlcNAc
# In short: as §1
# [14] = target: Gal(a1-4)Gal(b1-4)GlcNAc(b1-3)Gal(b1-4)Glc
# In short: as §1
# [15] = target: Gal(a1-4)GlcNAc
# In short: as §1
# [16] = target: Gal(a1-6)Glc
# In short: as §1
# [17] = target: Gal(b1-2)Gal
# In short: as §1
# [18] = target: Gal(b1-3)Gal
# In short: as §1
# [19] = target: Gal(b1-3)Gal(b1-4)GlcNAc
# In short: as §1
# [20] = target: Gal(b1-3)GalNAc
# In short: as §1
# [21] = target: Gal(b1-3)GalNAc(a1-3)[Fuc(a1-2)]Gal(b1-4)Glc
# In short: as §1
# [22] = target: Gal(b1-3)GalNAc(a1-3)[Fuc(a1-2)]Gal(b1-4)GlcNAc
# In short: as §1
# [23] = target: Gal(b1-3)GalNAc(b1-3)Gal
# In short: as §1
# [24] = target: Gal(b1-3)GalNAc(b1-3)Gal(a1-4)Gal(b1-4)Glc
# In short: as §1
# [25] = target: Gal(b1-3)GalNAc(b1-4)Gal(b1-4)Glc
# In short: as §1
# [26] = target: Gal(b1-3)GalNAc(b1-4)[Neu5Ac(a2-3)]Gal(b1-4)Glc
# In short: as §1
# [27] = target: Gal(b1-3)GlcNAc
# In short: as §1
# [28] = target: Gal(b1-3)GlcNAc(a1-3)Gal(b1-4)GlcNAc
# In short: as §1
# [29] = target: Gal(b1-3)GlcNAc(a1-6)Gal(b1-4)GlcNAc
# In short: as §1
# [30] = target: Gal(b1-3)GlcNAc(b1-2)Man
# In short: as §1
# [31] = target: Gal(b1-3)GlcNAc(b1-2)Man(a1-3)[Gal(b1-3)GlcNAc(b1-2)Man(a1-6)]Man(b1-4)GlcNAc(b1-4)GlcNAc
# In short: as §1
# [32] = target: Gal(b1-3)GlcNAc(b1-2)Man(a1-3)[Gal(b1-3)GlcNAc(b1-2)Man(a1-6)]Man(b1-4)GlcNAc(b1-4)[Fuc(a1-6)]GlcNAc
# In short: as §1
# [33] = target: Gal(b1-3)GlcNAc(b1-2)Man(a1-3)[GlcNAc(b1-4)][Gal(b1-3)GlcNAc(b1-2)Man(a1-6)]Man(b1-4)GlcNAc(b1-4)GlcNAc
# In short: as §1
# [34] = target: Gal(b1-3)GlcNAc(b1-2)[Gal(b1-3)GlcNAc(b1-6)]Man(a1-6)[Gal(b1-3)GlcNAc(b1-2)Man(a1-3)]Man(b1-4)GlcNAc(b1-4)GlcNAc
# In short: as §1
# [35] = target: Gal(b1-3)GlcNAc(b1-3)Gal(b1-3)GlcNAc
# In short: as §1
# [36] = target: Gal(b1-3)GlcNAc(b1-3)Gal(b1-4)Glc
# In short: as §1
# [37] = target: Gal(b1-3)GlcNAc(b1-3)Gal(b1-4)GlcNAc
# In short: as §1
binder,measurement,setting,value
B1,glycan array binding signal (z-score),[1],-0.929
same,glycan array binding signal (z-score),[2],0.372
same,glycan array binding signal (z-score),[3],0.001
same,glycan array binding signal (z-score),[4],-0.927
same,glycan array binding signal (z-score),[5],-0.029
same,glycan array binding signal (z-score),[6],-0.062
same,glycan array binding signal (z-score),[7],0.205
same,glycan array binding signal (z-score),[8],-0.334
same,glycan array binding signal (z-score),[9],-0.09
same,glycan array binding signal (z-score),[10],0.266
same,glycan array binding signal (z-score),[11],-0.371
same,glycan array binding signal (z-score),[12],-0.218
same,glycan array binding signal (z-score),[13],-1.07
same,glycan array binding signal (z-score),[14],-0.456
same,glycan array binding signal (z-score),[15],-0.716
same,glycan array binding signal (z-score),[16],-0.349
same,glycan array binding signal (z-score),[17],0.542
same,glycan array binding signal (z-score),[18],0.546
same,glycan array binding signal (z-score),[19],-1.16
same,glycan array binding signal (z-score),[20],-0.06
same,glycan array binding signal (z-score),[21],-0.892
same,glycan array binding signal (z-score),[22],0.296
same,glycan array binding signal (z-score),[23],1.42
same,glycan array binding signal (z-score),[24],0.953
same,glycan array binding signal (z-score),[25],-0.298
same,glycan array binding signal (z-score),[26],-0.445
same,glycan array binding signal (z-score),[27],-0.401
same,glycan array binding signal (z-score),[28],-0.475
same,glycan array binding signal (z-score),[29],-0.716
same,glycan array binding signal (z-score),[30],-1.05
same,glycan array binding signal (z-score),[31],0.135
same,glycan array binding signal (z-score),[32],-0.307
same,glycan array binding signal (z-score),[33],-0.686
same,glycan array binding signal (z-score),[34],-0.677
same,glycan array binding signal (z-score),[35],0.816
same,glycan array binding signal (z-score),[36],-0.193
same,glycan array binding signal (z-score),[37],-0.807

# 2 entries from above, set out differently:
binder	measurement	setting	value
B1	glycan array binding signal (z-score)	[33]	-0.686
same	glycan array binding signal (z-score)	[34]	-0.677
